Data taken from the supplement of paper PMC10849652.
The other results are listed elsewhere or left out.

Amino acid sequences for entries named in this document (tags omitted). A change or cut given only in a name is not applied to a line headed by its entry.
UniProt Q8WUY1: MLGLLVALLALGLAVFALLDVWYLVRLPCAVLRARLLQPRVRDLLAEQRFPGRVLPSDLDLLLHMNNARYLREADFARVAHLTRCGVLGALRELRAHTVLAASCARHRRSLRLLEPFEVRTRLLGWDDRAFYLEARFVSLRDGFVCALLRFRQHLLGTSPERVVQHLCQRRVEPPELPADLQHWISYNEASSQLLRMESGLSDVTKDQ
UniProt Q9Y5L4: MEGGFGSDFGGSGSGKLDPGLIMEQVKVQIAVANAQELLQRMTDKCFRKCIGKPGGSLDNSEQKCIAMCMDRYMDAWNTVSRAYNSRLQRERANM
UniProt P62380: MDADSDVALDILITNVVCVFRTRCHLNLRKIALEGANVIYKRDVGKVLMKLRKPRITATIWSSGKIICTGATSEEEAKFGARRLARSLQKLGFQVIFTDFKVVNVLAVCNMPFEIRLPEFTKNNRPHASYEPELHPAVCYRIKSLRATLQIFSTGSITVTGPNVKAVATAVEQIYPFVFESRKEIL
UniProt Q96FV9: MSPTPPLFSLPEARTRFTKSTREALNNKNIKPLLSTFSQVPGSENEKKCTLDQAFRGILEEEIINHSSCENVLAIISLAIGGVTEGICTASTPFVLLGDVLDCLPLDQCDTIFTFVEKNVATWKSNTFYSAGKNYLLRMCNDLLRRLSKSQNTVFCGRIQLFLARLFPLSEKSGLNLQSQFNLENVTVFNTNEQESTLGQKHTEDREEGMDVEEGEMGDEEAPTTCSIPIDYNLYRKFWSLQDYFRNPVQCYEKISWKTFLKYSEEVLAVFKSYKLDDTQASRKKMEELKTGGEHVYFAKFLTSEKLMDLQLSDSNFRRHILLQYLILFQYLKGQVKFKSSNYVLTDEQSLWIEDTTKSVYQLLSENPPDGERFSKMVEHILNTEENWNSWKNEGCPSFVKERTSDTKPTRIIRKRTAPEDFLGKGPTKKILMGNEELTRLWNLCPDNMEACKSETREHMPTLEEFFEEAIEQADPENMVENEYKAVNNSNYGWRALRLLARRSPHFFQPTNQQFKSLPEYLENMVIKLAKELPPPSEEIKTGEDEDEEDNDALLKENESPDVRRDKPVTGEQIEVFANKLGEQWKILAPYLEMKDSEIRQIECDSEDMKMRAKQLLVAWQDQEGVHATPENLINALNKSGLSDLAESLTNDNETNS
UniProt Q96BS2: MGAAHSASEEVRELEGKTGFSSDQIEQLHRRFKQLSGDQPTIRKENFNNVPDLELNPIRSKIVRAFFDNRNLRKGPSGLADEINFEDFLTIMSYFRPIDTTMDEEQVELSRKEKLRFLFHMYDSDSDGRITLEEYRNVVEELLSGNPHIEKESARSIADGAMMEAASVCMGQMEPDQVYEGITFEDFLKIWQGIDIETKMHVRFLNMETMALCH
UniProt Q9Y2W6: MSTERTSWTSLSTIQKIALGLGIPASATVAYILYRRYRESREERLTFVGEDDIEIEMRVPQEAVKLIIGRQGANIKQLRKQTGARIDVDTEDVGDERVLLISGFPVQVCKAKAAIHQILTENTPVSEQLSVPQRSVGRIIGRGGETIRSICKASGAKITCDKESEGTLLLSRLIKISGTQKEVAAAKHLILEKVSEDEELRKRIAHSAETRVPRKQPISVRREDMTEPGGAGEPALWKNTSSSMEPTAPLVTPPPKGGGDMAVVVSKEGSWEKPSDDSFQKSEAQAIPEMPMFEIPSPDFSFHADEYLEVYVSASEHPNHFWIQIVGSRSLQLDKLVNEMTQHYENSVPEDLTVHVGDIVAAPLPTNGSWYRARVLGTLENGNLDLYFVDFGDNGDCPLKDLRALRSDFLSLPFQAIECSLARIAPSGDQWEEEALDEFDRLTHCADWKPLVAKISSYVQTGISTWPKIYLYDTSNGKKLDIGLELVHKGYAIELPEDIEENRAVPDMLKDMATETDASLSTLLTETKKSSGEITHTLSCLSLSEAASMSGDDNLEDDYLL
UniProt P52888, whole entry, looked up: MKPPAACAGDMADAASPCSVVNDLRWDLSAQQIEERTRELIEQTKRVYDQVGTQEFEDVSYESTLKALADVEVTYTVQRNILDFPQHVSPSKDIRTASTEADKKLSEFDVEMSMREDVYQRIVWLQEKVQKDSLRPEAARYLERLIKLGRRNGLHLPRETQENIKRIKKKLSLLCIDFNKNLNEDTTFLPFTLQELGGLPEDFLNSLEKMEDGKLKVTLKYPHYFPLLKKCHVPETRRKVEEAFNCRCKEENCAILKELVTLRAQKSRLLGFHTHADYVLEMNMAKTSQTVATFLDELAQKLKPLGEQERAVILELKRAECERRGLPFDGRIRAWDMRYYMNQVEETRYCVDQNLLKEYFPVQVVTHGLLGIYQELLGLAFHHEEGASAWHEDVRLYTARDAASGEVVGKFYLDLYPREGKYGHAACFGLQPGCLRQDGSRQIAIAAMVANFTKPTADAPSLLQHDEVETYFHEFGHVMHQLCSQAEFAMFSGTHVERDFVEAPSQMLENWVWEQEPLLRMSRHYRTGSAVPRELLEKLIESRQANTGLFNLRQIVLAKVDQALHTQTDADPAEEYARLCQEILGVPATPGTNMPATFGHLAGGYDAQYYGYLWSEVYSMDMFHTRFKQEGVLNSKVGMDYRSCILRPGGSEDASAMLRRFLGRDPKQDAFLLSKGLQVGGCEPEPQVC
UniProt Q99595: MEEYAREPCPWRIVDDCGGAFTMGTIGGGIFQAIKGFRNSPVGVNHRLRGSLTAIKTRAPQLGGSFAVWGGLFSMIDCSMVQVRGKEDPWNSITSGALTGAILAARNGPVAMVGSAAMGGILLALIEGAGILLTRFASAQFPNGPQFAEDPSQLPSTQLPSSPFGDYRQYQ
UniProt Q8TC07: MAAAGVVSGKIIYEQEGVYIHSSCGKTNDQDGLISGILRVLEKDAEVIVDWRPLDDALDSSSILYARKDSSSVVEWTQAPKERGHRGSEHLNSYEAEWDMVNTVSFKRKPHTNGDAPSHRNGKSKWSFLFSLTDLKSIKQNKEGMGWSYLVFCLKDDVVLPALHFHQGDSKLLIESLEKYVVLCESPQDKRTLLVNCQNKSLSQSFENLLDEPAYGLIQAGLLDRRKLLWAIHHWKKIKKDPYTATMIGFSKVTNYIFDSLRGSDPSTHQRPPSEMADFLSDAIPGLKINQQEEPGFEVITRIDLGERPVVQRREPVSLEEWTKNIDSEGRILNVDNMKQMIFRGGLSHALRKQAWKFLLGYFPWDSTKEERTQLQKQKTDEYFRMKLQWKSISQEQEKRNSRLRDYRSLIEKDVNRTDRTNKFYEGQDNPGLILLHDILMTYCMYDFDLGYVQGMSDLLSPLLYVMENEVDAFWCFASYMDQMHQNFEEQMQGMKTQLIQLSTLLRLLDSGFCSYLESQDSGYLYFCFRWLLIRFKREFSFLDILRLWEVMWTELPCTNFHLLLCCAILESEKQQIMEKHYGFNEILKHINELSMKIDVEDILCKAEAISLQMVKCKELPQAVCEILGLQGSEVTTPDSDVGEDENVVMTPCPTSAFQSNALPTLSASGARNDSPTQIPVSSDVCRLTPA
UniProt Q12788: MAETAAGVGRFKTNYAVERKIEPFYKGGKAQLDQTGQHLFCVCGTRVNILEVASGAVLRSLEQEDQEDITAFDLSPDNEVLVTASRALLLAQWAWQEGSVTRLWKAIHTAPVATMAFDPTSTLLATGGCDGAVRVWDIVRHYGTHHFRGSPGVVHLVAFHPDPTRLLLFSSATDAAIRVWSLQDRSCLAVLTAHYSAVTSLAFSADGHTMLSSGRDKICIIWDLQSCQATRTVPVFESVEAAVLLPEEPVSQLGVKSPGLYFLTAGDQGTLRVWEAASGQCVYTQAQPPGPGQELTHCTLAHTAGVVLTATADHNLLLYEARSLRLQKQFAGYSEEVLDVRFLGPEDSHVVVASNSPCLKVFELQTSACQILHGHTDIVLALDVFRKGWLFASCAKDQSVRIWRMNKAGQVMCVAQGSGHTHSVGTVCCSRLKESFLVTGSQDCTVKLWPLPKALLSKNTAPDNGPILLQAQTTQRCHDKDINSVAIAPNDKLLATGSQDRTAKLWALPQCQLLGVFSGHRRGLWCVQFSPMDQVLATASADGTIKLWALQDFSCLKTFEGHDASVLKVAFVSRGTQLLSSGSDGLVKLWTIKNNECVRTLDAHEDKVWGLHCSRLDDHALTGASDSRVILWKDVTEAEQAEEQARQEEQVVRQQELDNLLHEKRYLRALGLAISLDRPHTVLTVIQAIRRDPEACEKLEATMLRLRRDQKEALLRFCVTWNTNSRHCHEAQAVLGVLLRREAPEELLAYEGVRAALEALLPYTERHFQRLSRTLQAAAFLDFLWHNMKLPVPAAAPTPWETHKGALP
UniProt Q03167: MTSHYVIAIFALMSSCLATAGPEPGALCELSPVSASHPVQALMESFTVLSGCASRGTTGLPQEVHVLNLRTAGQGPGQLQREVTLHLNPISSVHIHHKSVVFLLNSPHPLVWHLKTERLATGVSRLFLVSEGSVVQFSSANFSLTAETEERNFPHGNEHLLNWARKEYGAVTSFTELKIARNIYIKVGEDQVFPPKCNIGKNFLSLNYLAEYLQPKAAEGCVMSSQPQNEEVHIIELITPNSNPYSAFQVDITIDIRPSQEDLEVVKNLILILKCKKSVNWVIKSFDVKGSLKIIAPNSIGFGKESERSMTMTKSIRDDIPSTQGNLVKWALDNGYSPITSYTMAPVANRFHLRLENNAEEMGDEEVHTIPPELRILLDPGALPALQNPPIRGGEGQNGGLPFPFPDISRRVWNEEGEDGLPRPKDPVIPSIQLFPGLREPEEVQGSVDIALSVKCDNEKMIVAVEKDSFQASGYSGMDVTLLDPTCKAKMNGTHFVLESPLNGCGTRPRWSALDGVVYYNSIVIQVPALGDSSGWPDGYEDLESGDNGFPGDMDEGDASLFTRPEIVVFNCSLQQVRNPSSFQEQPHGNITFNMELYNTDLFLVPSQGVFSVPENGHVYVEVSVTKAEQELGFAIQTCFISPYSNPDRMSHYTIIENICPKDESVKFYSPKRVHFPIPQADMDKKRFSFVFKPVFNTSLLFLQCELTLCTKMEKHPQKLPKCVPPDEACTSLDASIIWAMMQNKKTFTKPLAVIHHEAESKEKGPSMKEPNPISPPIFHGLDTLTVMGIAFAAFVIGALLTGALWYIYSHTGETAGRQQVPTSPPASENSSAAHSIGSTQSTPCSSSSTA
UniProt O00142: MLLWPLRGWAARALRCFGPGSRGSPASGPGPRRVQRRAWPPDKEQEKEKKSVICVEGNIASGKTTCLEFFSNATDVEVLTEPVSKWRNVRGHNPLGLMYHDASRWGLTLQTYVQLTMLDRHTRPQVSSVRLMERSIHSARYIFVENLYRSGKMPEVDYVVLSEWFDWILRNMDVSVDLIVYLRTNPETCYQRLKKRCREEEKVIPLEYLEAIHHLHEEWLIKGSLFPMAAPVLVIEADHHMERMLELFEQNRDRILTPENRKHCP
UniProt P10646, whole entry, looked up: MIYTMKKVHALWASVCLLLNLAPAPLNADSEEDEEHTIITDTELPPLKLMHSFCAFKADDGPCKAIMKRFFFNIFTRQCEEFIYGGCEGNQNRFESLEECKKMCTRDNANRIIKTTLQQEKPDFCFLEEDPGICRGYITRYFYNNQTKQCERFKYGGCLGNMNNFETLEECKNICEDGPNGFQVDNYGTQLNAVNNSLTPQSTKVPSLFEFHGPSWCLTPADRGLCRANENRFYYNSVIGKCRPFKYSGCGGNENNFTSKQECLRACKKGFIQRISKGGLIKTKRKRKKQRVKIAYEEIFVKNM
UniProt Q9BV44: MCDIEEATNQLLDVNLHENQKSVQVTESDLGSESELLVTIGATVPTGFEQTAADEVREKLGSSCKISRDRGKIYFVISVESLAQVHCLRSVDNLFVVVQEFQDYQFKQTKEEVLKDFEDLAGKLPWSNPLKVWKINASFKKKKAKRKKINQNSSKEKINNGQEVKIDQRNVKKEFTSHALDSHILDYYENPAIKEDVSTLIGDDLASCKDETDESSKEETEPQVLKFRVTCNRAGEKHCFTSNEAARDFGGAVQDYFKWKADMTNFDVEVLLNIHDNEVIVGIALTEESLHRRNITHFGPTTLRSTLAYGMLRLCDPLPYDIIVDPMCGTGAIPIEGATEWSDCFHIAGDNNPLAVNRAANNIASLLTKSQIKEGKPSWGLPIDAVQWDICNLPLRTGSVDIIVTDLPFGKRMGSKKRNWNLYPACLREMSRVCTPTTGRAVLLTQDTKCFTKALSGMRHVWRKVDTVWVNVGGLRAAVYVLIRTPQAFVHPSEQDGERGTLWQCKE
UniProt Q15814: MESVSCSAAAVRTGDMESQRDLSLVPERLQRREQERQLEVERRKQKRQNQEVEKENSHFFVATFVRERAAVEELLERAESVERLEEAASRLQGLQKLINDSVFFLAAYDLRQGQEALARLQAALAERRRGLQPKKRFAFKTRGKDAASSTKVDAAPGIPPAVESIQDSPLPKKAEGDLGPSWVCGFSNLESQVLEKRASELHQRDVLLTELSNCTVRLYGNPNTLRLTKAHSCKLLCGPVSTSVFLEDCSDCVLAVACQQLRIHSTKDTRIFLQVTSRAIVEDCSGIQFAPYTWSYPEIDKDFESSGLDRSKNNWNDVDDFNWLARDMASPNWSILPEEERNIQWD

What was measured:
Experiment in all cases: log2 fold change, soluble protein after heating vs DMSO (PISA); higher = thermal stabilisation; K562 cells, 10 uM, 30 min; active = over 0.2 and 3.5 SD of the protein, either way, in both replicates (recomputed)
[1] = compound: COC1=CC=C(C=C1)CN2C=CC3=C2C=C(C=C3)C(=O)NO
Procedure, shortened: (§1)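 Thermal stability values are relative to control samples and come from duplicates. They are expressed as log2 fold changes. For measurement, K562 cells (2×10^6 cells/mL) received 10 μM compound for 30 min, and aliquots were heated for 3 min over 48°C-58°C, pooled, and extracted at 4°C in PBS with 0.5% NP-40. Soluble protein, the supernatant after 21,000xg for 90 min, was quantified by TMTpro 16plex LC-MS/MS with equalised channel sums.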

filanesib = compound: CON(C)C(=O)N1N=C(c2cc(F)ccc2F)S[C@@]1(CCCN)c1ccccc1 [filanesib]
Procedure, shortened: as §1

zotarolimus = compound: CO[C@H]1C[C@@H]2CC[C@@H](C)[C@@](O)(O2)C(=O)C(=O)N2CCCC[C@H]2C(=O)O[C@H]([C@H](C)C[C@@H]2CC[C@H](n3cnnn3)[C@H](OC)C2)CC(=O)[C@H](C)/C=C(\C)[C@@H](O)[C@@H](OC)C(=O)[C@H](C)C[C@H](C)/C=C/C=C/C=C/1C [zotarolimus]
Procedure, shortened: as §1

idasanutlin = compound: COc1cc(C(=O)O)ccc1NC(=O)[C@@H]1N[C@@H](CC(C)(C)C)[C@](C#N)(c2ccc(Cl)cc2F)[C@H]1c1cccc(Cl)c1F [idasanutlin]
Procedure, shortened: as §1

alisertib = compound: COc1cc(Nc2ncc3c(n2)-c2ccc(Cl)cc2C(c2c(F)cccc2OC)=NC3)ccc1C(=O)O [alisertib]
Procedure, shortened: as §1

[2] = compound: COc1cc2nc(-c3cc(F)ccc3O)nc(N[C@@H]3CNC[C@H]3C(C)(C)O)c2cc1OC
Procedure, shortened: as §1

gefitinib = compound: COc1cc2ncnc(Nc3ccc(F)c(Cl)c3)c2cc1OCCCN1CCOCC1 [gefitinib]
Procedure, shortened: as §1

[3] = compound: COc1cccc2cc(-c3nc([C@H]4CC[C@H](C(=O)O)CC4)n4ncnc(N)c34)[nH]c12
Procedure, shortened: as §1

lapatinib = compound: CS(=O)(=O)CCNCc1ccc(-c2ccc3ncnc(Nc4ccc(OCc5cccc(F)c5)c(Cl)c4)c3c2)o1 [lapatinib]
Procedure, shortened: as §1

pictilisib = compound: CS(=O)(=O)N1CCN(Cc2cc3nc(-c4cccc5[nH]ncc45)nc(N4CCOCC4)c3s2)CC1 [pictilisib]
Procedure, shortened: as §1

Target	log2 fold change [1]	log2 fold change (filanesib)	log2 fold change (zotarolimus)	log2 fold change (idasanutlin)	log2 fold change (alisertib)	log2 fold change [2]	log2 fold change (gefitinib)	log2 fold change [3]	log2 fold change (lapatinib)	log2 fold change (pictilisib)
THEM6 (UniProt Q8WUY1)	inactive: 0.002	inactive: -0.065	inactive: 0.018	inactive: 0.001	inactive: -0.088	inactive: -0.047	inactive: 0.01	inactive: 0.099	inactive: 0.013	inactive: 0.05
TIMM13 (UniProt Q9Y5L4)	inactive: 0.206	inactive: -0.091	inactive: 0.042	inactive: -0.043	inactive: -0.006	active: -0.3	inactive: -0.002	inactive: -0.01	inactive: 0.027	inactive: -0.056
TBPL1 (UniProt P62380)	inactive: 0.026	inactive: 0.009	inactive: 0.043	inactive: -0.1	inactive: 0.025	inactive: 0	inactive: 0.058	inactive: -0.035	inactive: -0.008	inactive: 0.051
THOC1 (UniProt Q96FV9)	inactive: -0.06	inactive: 0.099	inactive: 0.105	inactive: 0.186	inactive: 0.052	inactive: -0.087	inactive: -0.032	inactive: -0.146	inactive: -0.013	inactive: -0.132
TICAM2 isoform 2 (UniProt Q86XR7)	inactive: 0.086	inactive: -0.106	inactive: 0.001	inactive: -0.055	inactive: -0.022	inactive: -0.009	inactive: -0.015	inactive: 0.025	inactive: -0.024	inactive: 0.112
TCOF1 isoform 4 (UniProt Q13428)	inactive: 0.002	inactive: 0.028	inactive: -0.011	inactive: 0.092	inactive: -0.061	inactive: -0.051	inactive: -0.01	inactive: -0.002	inactive: 0.017	inactive: 0.028
TESC (UniProt Q96BS2)	inactive: 0	inactive: 0.063	inactive: 0.036	inactive: 0.057	inactive: 0.105	inactive: 0.249	inactive: 0.074	inactive: 0.087	inactive: -0.08	inactive: 0.12
THBS1 (UniProt P07996)	inactive: 0.038	inactive: 0.072	inactive: -0.182	inactive: 0.151	inactive: -0.017	inactive: -0.074	inactive: -0.065	inactive: 0.27	inactive: -0.02	inactive: -0.106
THOC2 (UniProt Q8NI27)	inactive: -0.002	inactive: 0.148	inactive: -0.088	inactive: 0.157	inactive: -0.071	inactive: -0.005	inactive: 0.015	inactive: -0.027	inactive: 0.074	inactive: -0.001
TBC1D24 (UniProt Q9ULP9)	inactive: 0.032	inactive: -0.145	inactive: 0.006	inactive: -0.127	inactive: -0.102	inactive: -0.028	inactive: 0.007	inactive: 0.05	inactive: 0.032	inactive: -0.082
TDRKH (UniProt Q9Y2W6)	inactive: 0.021	inactive: 0.101	inactive: 0.099	inactive: -0.125	inactive: -0.119	inactive: 0.005	inactive: 0.003	inactive: -0.055	inactive: 0.008	inactive: -0.011
THNSL1 (UniProt Q8IYQ7)	inactive: 0.009	inactive: -0.149	inactive: 0.036	inactive: 0.037	inactive: -0.008	inactive: 0.008	inactive: 0.025	inactive: 0.01	inactive: 0.011	inactive: 0.082
THOP1 (UniProt P52888)	inactive: 0.047	inactive: -0.026	inactive: -0.017	inactive: -0.027	inactive: -0.032	inactive: 0.054	inactive: -0.015	inactive: 0.007	inactive: -0.019	inactive: 0.037
TJP2 isoform 7 (UniProt Q9UDY2)	inactive: 0.019	inactive: 0.093	inactive: 0.068	inactive: -0.017	inactive: -0.151	inactive: -0.091	inactive: 0.042	inactive: 0.012	inactive: 0.008	inactive: 0.067
TIMM17A (UniProt Q99595)	inactive: 0.016	inactive: -0.021	inactive: -0.008	inactive: 0.014	inactive: -0.008	inactive: 0.006	inactive: -0.001	inactive: 0.06	inactive: -0.016	inactive: 0.011
TKT isoform 2 (UniProt P29401)	inactive: -0.023	inactive: -0.061	inactive: -0.017	inactive: -0.024	inactive: -0.073	inactive: -0.015	inactive: 0.011	inactive: 0.006	inactive: -0.028	inactive: -0.015
TBC1D20 isoform 3 (UniProt Q96BZ9)	inactive: 0.026	inactive: -0.023	inactive: 0.136	inactive: -0.184	inactive: -0.089	inactive: 0.102	inactive: 0.148	inactive: -0.032	inactive: -0.03	inactive: -0.073
TBC1D15 isoform 3 (UniProt Q8TC07)	inactive: -0.063	inactive: 0	inactive: 0.039	inactive: -0.058	inactive: -0.052	inactive: -0.065	inactive: 0.015	inactive: -0.06	inactive: 0.032	inactive: -0.009
TFRC (UniProt P02786)	inactive: 0.009	inactive: -0.013	inactive: -0.041	inactive: -0.027	inactive: -0.05	inactive: 0.017	inactive: 0.004	inactive: 0.063	inactive: -0.03	inactive: 0.048
TBL3 (UniProt Q12788)	inactive: 0.009	inactive: 0.209	inactive: 0.044	inactive: 0.118	inactive: -0.037	inactive: 0.035	inactive: 0.067	inactive: -0.025	inactive: 0.06	inactive: -0.006
TGFBR3 (UniProt Q03167)	inactive: -0.093	inactive: 0.14	inactive: -0.04	inactive: 0.057	inactive: -0.133	inactive: -0.017	inactive: 0.072	inactive: 0.066	inactive: 0.029	inactive: -0.011
TIPRL (UniProt O75663)	inactive: 0.011	inactive: -0.063	inactive: -0.013	inactive: -0.104	inactive: 0.014	inactive: 0.043	inactive: -0.034	inactive: -0.009	inactive: -0.009	inactive: 0.034
TK2 isoform 6 (UniProt O00142)	inactive: -0.069	inactive: -0.012	inactive: -0.196	inactive: 0.126	inactive: 0.046		inactive: -0.055	inactive: 0.101		inactive: 0.127
TFPI (UniProt P10646)	inactive: 0.062	inactive: 0.16	inactive: -0.145		inactive: -0.095		inactive: 0.074	inactive: -0.172		inactive: 0.338
TGFB1 (UniProt P01137)	inactive: -0.008	inactive: 0.034	inactive: -0.008	inactive: -0.076	inactive: -0.037	inactive: -0.004	inactive: 0.002	inactive: 0.051	inactive: -0.011	inactive: 0
THUMPD3 (UniProt Q9BV44)	inactive: -0.023	inactive: -0.076	inactive: 0.005	inactive: -0.029	inactive: -0.044	inactive: -0.032	inactive: 0.01	inactive: 0.005	inactive: 0.026	inactive: -0.03
TBCC (UniProt Q15814)	inactive: -0.008	inactive: -0.049	inactive: 0.022	inactive: -0.061	inactive: 0.004	inactive: -0.007	inactive: -0.009	inactive: 0.002	inactive: 0.014	inactive: 0.021

Given as comma-separated lines: part of the list above
Target,log2 fold change [1],log2 fold change (filanesib),log2 fold change (zotarolimus),log2 fold change (idasanutlin),log2 fold change (alisertib),log2 fold change [2],log2 fold change (gefitinib),log2 fold change [3],log2 fold change (lapatinib),log2 fold change (pictilisib)
TK2 isoform 6 (UniProt O00142),inactive: -0.069,inactive: -0.012,inactive: -0.196,inactive: 0.126,inactive: 0.046,,inactive: -0.055,inactive: 0.101,,inactive: 0.127
TFPI (UniProt P10646),inactive: 0.062,inactive: 0.16,inactive: -0.145,,inactive: -0.095,,inactive: 0.074,inactive: -0.172,,inactive: 0.338
TGFB1 (UniProt P01137),inactive: -0.008,inactive: 0.034,inactive: -0.008,inactive: -0.076,inactive: -0.037,inactive: -0.004,inactive: 0.002,inactive: 0.051,inactive: -0.011,inactive: 0
THUMPD3 (UniProt Q9BV44),inactive: -0.023,inactive: -0.076,inactive: 0.005,inactive: -0.029,inactive: -0.044,inactive: -0.032,inactive: 0.01,inactive: 0.005,inactive: 0.026,inactive: -0.03
TBCC (UniProt Q15814),inactive: -0.008,inactive: -0.049,inactive: 0.022,inactive: -0.061,inactive: 0.004,inactive: -0.007,inactive: -0.009,inactive: 0.002,inactive: 0.014,inactive: 0.021
